Measured values as given in the supplement of paper PMC6411743.
± gives the standard deviation of the averaged measurements. The entries are a selection whose mix differs from that of the whole data set.

The chains behind the UniProt entries cited, without tags or fusion partners. Where a name states a change or a piece, a line headed by the entry shows the natural chain unless it says otherwise.
UniProt Q6NT76: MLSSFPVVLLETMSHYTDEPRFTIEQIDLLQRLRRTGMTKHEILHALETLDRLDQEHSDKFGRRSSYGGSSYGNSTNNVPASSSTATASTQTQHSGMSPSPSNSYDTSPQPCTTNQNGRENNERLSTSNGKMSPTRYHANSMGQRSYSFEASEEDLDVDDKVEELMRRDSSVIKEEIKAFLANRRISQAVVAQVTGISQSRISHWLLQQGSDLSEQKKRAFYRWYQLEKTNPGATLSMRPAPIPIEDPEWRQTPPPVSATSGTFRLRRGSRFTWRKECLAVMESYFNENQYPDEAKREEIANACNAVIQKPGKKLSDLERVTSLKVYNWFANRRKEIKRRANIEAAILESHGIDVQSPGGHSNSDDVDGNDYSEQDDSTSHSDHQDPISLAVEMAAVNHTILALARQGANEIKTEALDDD
UniProt Q7L1V2: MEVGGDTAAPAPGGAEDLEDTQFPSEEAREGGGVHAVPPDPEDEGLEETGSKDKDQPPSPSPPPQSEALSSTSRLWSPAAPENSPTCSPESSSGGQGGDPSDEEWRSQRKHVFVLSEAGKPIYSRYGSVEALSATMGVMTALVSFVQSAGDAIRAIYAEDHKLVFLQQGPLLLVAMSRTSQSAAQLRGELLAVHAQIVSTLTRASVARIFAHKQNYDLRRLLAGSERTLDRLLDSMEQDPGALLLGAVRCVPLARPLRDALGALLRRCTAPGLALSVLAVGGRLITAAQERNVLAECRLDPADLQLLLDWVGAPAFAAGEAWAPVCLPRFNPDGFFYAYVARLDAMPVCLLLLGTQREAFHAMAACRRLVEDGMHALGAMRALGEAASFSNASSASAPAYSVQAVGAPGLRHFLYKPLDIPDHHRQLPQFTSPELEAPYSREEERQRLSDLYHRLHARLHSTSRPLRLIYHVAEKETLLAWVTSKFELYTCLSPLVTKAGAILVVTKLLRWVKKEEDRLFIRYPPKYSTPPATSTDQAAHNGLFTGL
UniProt Q63HQ0: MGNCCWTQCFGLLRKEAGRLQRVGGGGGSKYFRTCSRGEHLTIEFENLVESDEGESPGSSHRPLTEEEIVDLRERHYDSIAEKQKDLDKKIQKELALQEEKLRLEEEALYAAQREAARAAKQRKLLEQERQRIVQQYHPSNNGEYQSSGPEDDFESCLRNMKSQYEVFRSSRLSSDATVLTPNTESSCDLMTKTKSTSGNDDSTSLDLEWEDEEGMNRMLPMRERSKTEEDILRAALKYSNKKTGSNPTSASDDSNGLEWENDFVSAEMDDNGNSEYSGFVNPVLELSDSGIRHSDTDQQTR
UniProt Q6PI48: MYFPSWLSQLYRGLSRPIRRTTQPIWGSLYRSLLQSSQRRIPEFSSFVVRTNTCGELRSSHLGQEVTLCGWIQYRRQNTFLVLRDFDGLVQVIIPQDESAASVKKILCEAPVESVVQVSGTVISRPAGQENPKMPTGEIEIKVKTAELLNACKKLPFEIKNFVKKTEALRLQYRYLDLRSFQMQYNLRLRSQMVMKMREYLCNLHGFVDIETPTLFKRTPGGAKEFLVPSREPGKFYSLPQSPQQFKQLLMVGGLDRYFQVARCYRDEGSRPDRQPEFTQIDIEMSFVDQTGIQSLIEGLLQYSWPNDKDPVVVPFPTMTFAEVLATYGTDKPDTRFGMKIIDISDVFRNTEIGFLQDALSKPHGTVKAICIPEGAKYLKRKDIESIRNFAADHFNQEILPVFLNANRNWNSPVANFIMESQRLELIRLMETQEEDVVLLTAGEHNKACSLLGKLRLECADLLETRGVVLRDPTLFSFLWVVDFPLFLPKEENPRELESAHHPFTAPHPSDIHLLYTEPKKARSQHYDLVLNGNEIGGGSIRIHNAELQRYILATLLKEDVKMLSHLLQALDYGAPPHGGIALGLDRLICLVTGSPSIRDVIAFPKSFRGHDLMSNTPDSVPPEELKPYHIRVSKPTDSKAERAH
UniProt Q7Z3K6: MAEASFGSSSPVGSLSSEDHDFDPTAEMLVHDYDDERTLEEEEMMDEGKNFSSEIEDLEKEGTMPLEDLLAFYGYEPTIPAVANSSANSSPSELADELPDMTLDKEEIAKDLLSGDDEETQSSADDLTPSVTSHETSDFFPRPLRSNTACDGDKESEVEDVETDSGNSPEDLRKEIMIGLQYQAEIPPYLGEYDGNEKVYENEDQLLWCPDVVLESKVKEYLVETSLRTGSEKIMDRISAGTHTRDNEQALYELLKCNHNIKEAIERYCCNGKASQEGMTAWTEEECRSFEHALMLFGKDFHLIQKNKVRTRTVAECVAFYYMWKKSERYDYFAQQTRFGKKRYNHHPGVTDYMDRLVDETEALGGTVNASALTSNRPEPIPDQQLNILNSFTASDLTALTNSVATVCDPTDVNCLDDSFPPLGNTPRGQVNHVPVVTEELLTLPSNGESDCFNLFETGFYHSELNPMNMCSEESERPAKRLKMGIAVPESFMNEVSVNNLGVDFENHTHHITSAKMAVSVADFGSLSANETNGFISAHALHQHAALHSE
UniProt Q6BDS2: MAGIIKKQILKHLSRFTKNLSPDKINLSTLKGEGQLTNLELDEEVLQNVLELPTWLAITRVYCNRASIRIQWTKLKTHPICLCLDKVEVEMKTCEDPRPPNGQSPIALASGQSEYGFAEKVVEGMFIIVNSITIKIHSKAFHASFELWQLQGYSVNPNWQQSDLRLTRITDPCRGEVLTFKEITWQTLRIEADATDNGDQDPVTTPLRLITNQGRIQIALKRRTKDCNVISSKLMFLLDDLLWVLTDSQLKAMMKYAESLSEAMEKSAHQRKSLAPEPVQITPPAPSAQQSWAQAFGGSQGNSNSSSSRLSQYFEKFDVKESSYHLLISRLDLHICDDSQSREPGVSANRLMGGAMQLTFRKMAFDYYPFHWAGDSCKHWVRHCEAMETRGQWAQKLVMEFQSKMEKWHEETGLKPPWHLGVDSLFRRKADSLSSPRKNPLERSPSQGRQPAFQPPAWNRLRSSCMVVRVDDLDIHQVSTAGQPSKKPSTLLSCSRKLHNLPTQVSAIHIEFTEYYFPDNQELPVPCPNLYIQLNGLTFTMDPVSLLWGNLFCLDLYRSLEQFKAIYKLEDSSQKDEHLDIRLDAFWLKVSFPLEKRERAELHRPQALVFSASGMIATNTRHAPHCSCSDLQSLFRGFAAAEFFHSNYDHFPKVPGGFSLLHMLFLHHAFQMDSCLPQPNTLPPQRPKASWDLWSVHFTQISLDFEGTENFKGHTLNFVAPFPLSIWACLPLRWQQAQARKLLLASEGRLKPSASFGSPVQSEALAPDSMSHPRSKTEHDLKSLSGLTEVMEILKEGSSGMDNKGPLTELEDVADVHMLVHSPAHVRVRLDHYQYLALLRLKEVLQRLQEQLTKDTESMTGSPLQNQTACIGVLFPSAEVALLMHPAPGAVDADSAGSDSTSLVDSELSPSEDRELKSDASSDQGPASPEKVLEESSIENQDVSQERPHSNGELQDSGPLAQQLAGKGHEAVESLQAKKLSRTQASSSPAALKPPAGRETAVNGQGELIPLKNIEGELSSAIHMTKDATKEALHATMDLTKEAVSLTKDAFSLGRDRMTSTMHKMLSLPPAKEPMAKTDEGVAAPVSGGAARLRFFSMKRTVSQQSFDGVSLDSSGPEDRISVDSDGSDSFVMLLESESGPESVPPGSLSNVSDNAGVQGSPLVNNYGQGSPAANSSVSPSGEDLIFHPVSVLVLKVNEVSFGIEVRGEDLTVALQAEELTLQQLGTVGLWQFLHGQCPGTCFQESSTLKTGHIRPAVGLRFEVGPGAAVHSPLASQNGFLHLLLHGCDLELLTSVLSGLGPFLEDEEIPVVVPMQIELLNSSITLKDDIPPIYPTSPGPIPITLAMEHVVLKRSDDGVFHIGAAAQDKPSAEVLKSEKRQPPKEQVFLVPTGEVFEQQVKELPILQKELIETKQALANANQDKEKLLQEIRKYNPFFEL
UniProt Q7LBR1: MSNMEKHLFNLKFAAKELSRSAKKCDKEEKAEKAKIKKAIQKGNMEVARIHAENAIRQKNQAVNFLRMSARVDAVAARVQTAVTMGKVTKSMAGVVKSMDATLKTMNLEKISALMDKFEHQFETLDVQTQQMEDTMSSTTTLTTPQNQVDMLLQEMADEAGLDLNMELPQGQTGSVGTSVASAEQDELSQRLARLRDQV
UniProt Q5VYS8: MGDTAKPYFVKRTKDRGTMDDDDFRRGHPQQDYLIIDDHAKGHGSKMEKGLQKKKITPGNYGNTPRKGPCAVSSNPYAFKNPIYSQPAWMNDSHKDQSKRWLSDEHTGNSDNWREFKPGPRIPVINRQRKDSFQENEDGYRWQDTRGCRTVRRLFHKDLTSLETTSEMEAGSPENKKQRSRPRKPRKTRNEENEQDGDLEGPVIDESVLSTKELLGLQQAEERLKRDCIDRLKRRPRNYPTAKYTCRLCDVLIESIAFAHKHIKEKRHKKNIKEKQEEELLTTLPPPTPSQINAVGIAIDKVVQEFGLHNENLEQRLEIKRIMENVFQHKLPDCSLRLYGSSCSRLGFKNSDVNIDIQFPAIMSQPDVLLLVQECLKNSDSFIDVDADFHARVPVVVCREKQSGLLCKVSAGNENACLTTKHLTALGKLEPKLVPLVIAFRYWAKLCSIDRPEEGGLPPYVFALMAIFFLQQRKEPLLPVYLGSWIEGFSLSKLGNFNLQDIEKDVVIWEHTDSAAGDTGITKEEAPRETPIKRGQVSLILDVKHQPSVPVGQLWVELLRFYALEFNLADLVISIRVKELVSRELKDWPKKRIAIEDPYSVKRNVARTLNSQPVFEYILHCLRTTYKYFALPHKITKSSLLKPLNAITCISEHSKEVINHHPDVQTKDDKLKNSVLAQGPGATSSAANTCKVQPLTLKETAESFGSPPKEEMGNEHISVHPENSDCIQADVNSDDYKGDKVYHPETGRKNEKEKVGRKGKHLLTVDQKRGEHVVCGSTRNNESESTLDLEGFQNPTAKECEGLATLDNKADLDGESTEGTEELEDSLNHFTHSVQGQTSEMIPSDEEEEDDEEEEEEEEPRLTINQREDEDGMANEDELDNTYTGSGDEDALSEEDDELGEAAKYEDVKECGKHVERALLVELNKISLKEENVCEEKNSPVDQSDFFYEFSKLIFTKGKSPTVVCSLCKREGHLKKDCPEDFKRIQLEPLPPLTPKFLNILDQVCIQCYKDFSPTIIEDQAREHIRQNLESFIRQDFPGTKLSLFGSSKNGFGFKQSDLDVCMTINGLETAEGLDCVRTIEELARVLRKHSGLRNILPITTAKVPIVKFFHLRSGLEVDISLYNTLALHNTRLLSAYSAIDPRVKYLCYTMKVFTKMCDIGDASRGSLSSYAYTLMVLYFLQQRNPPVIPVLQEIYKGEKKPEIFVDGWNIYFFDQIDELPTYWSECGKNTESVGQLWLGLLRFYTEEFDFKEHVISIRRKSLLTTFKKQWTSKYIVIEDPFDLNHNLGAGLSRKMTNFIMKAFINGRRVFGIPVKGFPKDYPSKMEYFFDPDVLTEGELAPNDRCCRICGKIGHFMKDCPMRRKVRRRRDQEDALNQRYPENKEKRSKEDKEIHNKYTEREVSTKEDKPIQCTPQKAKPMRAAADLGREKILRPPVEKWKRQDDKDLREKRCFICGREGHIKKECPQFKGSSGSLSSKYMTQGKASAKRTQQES
UniProt Q5VW32: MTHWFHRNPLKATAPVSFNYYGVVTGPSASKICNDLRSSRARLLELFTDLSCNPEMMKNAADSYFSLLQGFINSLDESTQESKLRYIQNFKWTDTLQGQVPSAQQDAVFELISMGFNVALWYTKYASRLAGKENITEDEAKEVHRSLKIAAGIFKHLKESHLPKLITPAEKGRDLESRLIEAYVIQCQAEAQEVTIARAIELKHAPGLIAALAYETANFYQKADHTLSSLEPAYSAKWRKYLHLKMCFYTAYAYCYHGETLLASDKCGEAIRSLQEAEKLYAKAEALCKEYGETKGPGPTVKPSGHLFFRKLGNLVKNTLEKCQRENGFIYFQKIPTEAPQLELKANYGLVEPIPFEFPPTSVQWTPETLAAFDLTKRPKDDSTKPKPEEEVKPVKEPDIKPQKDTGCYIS
UniProt Q6DKJ4: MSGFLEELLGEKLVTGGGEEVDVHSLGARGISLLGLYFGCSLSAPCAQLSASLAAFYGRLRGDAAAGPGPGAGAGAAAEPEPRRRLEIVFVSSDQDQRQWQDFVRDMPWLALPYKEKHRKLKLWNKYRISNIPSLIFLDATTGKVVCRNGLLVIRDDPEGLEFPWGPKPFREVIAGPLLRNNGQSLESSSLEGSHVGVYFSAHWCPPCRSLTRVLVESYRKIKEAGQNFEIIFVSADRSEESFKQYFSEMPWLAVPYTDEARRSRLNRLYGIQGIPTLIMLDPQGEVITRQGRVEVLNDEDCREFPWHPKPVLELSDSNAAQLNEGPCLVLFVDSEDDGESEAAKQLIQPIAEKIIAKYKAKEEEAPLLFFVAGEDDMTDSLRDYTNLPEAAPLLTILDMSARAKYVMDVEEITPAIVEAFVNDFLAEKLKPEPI

Compound: Nc1ncnc2c1ncn2[C@@H]1O[C@H](COP(=O)(O)OP(=O)(O)NP(=O)(O)O)[C@@H](O)[C@H]1O [adenylyl imidodiphosphate]
Test: NP40-soluble protein abundance relative to vehicle (solubility fold change) (ratio); higher = more soluble protein in presence of AMP-PNP
Summary of the method: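 Each value is a fold change relative to the detergent-processed vehicle, calculated per replicate from vsn-normalised intensities. Jurkat crude lysate received eight concentrations (0.1 to 10 mM) for 10 min at room temperature and 3 min at 37 °C, then was solubilised in 0.8% NP40 with benzonase (60 min, 4 °C). The ultracentrifuged supernatant was TMT-labelled and run by LC-MS/MS in three independent experiments.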

Target | NP40-soluble protein abundance (concentration: 1mM) | NP40-soluble protein abundance (concentration: 2mM) | NP40-soluble protein abundance (concentration: 4mM) | NP40-soluble protein abundance (concentration: 6mM) | NP40-soluble protein abundance (concentration: 8mM) | NP40-soluble protein abundance (concentration: 10mM)
ANKRD11 (UniProt Q6UB99) | 1.01 ± 0.025 | 1.09 ± 0.039 | 1.04 ± 0.028 | 1.06 ± 0.029 | 1.02 ± 0.036 | 1.05 ± 0.018
UniProt Q6NT76 and related entries | 1.02 ± 0.035 | 1.03 ± 0.047 | 1.02 ± 0.028 | 0.973 ± 0.021 | 1.02 ± 0.044 | 0.987 ± 0.015
MON1B (UniProt Q7L1V2) | 1.01 ± 0.013 | 0.934 ± 0.064 | 0.996 ± 0.04 | 1.03 ± 0.05 | 1.03 ± 0.025 | 1.024 ± 0.0073
UniProt Q63HQ0 | 0.981 ± 0.013 | 1.03 ± 0.038 | 0.997 ± 0.048 | 0.974 ± 0.026 | 0.926 ± 0.018 | 0.942 ± 0.017
FBXO38 (UniProt Q6PIJ6) | 0.993 ± 0.075 | 1.03 ± 0.072 | 1.05 ± 0.071 | 1.02 ± 0.061 | 0.985 ± 0.089 | 1.01 ± 0.11
DARS2 (UniProt Q6PI48) | 0.939 ± 0.049 | 0.861 ± 0.12 | 0.924 ± 0.016 | 0.918 ± 0.036 | 0.942 ± 0.021 | 0.89 ± 0.012
UniProt Q7Z3K6 and related entries | 1.01 ± 0.025 | 1.03 ± 0.041 | 1.04 ± 0.048 | 0.987 ± 0.032 | 0.976 ± 0.061 | 1 ± 0.048
UHRF1BP1 (UniProt Q6BDS2) | 1 ± 0.042 | 1.006 ± 0.006 | 1.02 ± 0.026 | 1.03 ± 0.033 | 0.998 ± 0.021 | 1.01 ± 0.0068
UniProt Q6P1N0 and related entries | 0.987 ± 0.014 | 1.01 ± 0.023 | 1.009 ± 0.0031 | 1.01 ± 0.014 | 1.01 ± 0.015 | 1.02 ± 0.028
UniProt Q7L2H7 | 1 ± 0.021 | 1 ± 0.085 | 1.04 ± 0.13 | 1.25 ± 0.15 | 1.3 ± 0.15 | 1.33 ± 0.24
CHMP1B (UniProt Q7LBR1) | 0.961 ± 0.034 | 1.11 ± 0.23 | 1.03 ± 0.091 | 1.13 ± 0.17 | 1.11 ± 0.13 | 1.17 ± 0.18
UniProt Q5VYS8 and related entries | 1.032 ± 0.0083 | 1.07 ± 0.017 | 1.07 ± 0.038 | 1.05 ± 0.043 | 1.02 ± 0.029 | 1.06 ± 0.031
UniProt Q6KC79 and related entries | 1.05 ± 0.026 | 1.13 ± 0.056 | 1.13 ± 0.025 | 1.13 ± 0.06 | 1.1 ± 0.068 | 1.17 ± 0.052
UniProt Q5VW32 and related entries | 1.013 ± 0.0014 | 0.968 ± 0.028 | 0.984 ± 0.017 | 0.98 ± 0.041 | 1.03 ± 0.052 | 0.985 ± 0.046
NXN (UniProt Q6DKJ4) | 0.99 ± 0.063 | 0.969 ± 0.042 | 0.978 ± 0.019 | 0.978 ± 0.046 | 1.03 ± 0.058 | 0.994 ± 0.025

Single values from the entries so far:
CHMP1B (UniProt Q7LBR1) | NP40-soluble protein abundance (concentration: 2mM): 1.11 ± 0.23
NXN (UniProt Q6DKJ4) | NP40-soluble protein abundance (concentration: 4mM): 0.978 ± 0.019
